## Percent effect of library compounds

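Growth of Mycobacterium tuberculosis over 4 days (cholesterol / DPPC medium with tyloxapol); the read-out is not stated. Tested at 50 µM. Higher reads as more growth inhibition (inferred: compounds with an IC50 in retests scored well above the rest). Size under these conditions: about 69,000 compounds, about 370 of them at 50% or above in at least one test.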

The filed quantity is “Percent Effect” (%).
How 0% and 100% were set is not recorded. Most values in the screen are low, and negative values occur.
This is an unselected part of the compounds tested.
Two or more numbers in one place are separate tests of the same structure; such repeats can differ widely.

| compound | percent effect |
|---|---|
| `O=C1N(c2cccc(F)c2)Cc2nc(=O)n(Cc3ccc(Cl)cc3)n21` | -7.148% |
| `CC(C)n1cnnc1CN(C)Cc1ccoc1` | 24.53% |
| `[H][C@@]12C[C@H](C(=O)NCC(C)C)[C@@]([H])(CN(C(=O)Nc3ccc(F)cc3)C1)O2` | -10.3% |
| `COCc1nc(N(C)C)ncc1C(=O)OC` | -6.673% |
| `Cc1cc(F)ccc1NS(=O)(=O)c1cc2c(c(C(=O)O)c1)OCCO2` | 3.728% |
| `CN(CC(=O)NC1(C#N)CCCC1)C1CCCN(c2cccnn2)C1` (centres unmarked) | -2.156% |
| `O=C(c1ccncc1F)N1CCc2ncnc(N3CCOCC3)c2CC1` | -24.06% |
| `CNc1nc(N2CCN(C)C(CCO)C2)nc2c1CCC2` (centres unmarked) | -17.55% |
| `COc1cccc(OC2CN(C(=O)Cn3nc4ccccc4n3)C2)c1` | 8.738% |
| `CC1CN(Cc2ccccc2)CCCN1CCS(C)(=O)=O` (centres unmarked) | 32.73% |
| `O=C(c1ccc(F)cc1Cl)N1CCn2c(nnc2C(F)(F)F)C1` | 14.92% |
| `Cc1cnn(CC2CCN(CC(O)c3ccccc3F)CC2)c1` (centres unmarked) | -5.044% |
| `O=C(O)C(F)(F)F.[H][C@]12CC(=O)N(CC3CC3)[C@@]1([H])CCN2Cc1cccc(C)n1` | -24.32% |
| `O=C(Nc1ccnc(OC2CCOC2)c1)c1ccccc1Cl` (centres unmarked) | 31.96% |
| `CCC(CC)C(=O)n1ccn(S(=O)(=O)c2ccc(C)cc2)c1=O` | -2.275% |
| `COCCC(=O)N1CCn2c(COCC3CC3)cnc2C1C` (centres unmarked) | -26.43% |
| `O=C(O)c1cc(-c2cccs2)nc2c(Br)cnn12` | -19.05% |
| `O=C(c1cnccn1)N1CCCC(Cc2cccc3ncccc23)C1` (centres unmarked) | -15.37% |
| `CO[C@H]1CNC[C@@H]1NC(=O)c1cc(C)nc2ccc(C)cc12` | -6% |
| `O=C(O)C(F)(F)F.O=C(O)C(F)(F)F.[H][C@]12CCN(c3ccc(C)nn3)[C@@]1([H])CC[C@H](COCc1cccnc1)O2` | -16.96% |
| `Cc1noc(C)c1C(=O)N1Cc2ncn(C)c2C(COCC(C)C)C1.O=C(O)C(F)(F)F` (centres unmarked) | -9.943% |
| `Cc1nc(-c2ccccc2)sc1C(=O)NCCNc1ncccn1` | -19.39% |
| `CS(=O)(=O)CCn1ccc(NC(=O)Cc2ccccc2Cl)n1` | 9.34% |
| `COc1ccnc(NCc2ccccc2Cn2cccn2)n1` | -12.59% |
| `O=C(O)c1ccn(-c2ccccc2NS(=O)(=O)c2cccc(F)c2)n1` | -15.55% and -11.39% |
| `COCCn1ccnc1C1CCCN(C(=O)c2ccncc2F)C1` (centres unmarked) | -27.14% |
| `CNC(=O)c1cnc2n1CCN(Cc1cccnc1)C2.O=C(O)C(F)(F)F.O=C(O)C(F)(F)F.O=C(O)C(F)(F)F` | -0.7424% |
| `CCNC(=O)[C@@H]1C[C@@H](N)CN1C(=O)c1cc2ccccc2[nH]1` | -8.393% |
| `CN1C(=O)CC(C(=O)O)C12CCN(Cc1ccc(F)cc1Cl)CC2` (centres unmarked) | -23.14% |
| `CCNc1c(NC(=O)NC(C)C)c(=O)oc2ccccc12` | 2.443% |
| `CNc1nc2c(s1)C(c1c(Cl)cccc1Cl)CC(=O)N2` (centres unmarked) | 19.24% |
| `Cc1nc(C)n(CC2CCCCN2CCc2ccncc2)n1` (centres unmarked) | -7.853% |
| `[H][C@@]12CCCO[C@]1([H])[C@H](N(C)C(C)C)CN(C(=O)c1cc(C)[nH]c1C)C2` | 0.4784% and -1.173% |
| `CN(C)C(=O)c1cc(-c2cnc(N)nc2)nc2cc(F)ccc12` | 15.09% |
| `c1cnnc(N2CCCC2CNCc2nc3ccccc3o2)c1` (centres unmarked) | 51.27% |
| `Cc1cccnc1NC(=O)N(CCO)Cc1ccsc1` | 16.1% |
| `O=C(O)C(F)(F)F.[H][C@@]12C[C@H](C(=O)NC3CC3)CN(CC3CCOCC3)[C@]1([H])CCO2` | -15.11% |
| `CC(C)CN1CCC(N2CCC(C(=O)N(C)C)CC2)CC1.O=C(O)C(F)(F)F.O=C(O)C(F)(F)F` | -5.997% |
| `CC(=O)N1CC(c2ccnc(Nc3ccc(C)cn3)n2)C1` | -31.65% |
| `CNc1nc(C(=O)N2CCCn3nc(C(=O)N4CCCC4)cc3C2)cs1` | 3.875% |
| `Cc1nc2n(n1)CC(NCc1cc(Cl)c3c(c1)OCCO3)CC2` (centres unmarked) | -30.85% |
| `CCc1cn[nH]c1C1CCN(c2cc(C)c3cc(OC)ccc3n2)CC1` | -7.832% and 2.038% |
| `COCCNC(=O)Nc1ccc(CN2CCOC2=O)cc1` | -19.97% |
| `Cc1ncc2c(n1)CN(CC1CCCCO1)CC2` (centres unmarked) | 7.865% |
| `CCC(NC(=O)c1cccc2[nH]ccc12)C(=O)N1CCOCC1` (centres unmarked) | 1.32% |
| `CC(C)n1nc2c(cc1=O)CN(CCOc1ccc(C#N)cc1)CC2` | 6.664% |
| `O=C(Cc1ccccc1)N1CCN(Cc2noc(C3CC3)n2)CC1` | -26.26% |
| `CCn1cnnc1C1CCCN(C(=O)COc2ccc(Cl)cc2)C1` (centres unmarked) | 3.807% |
| `Cc1ccc(CN2CC3(CCN(C(=O)c4cscn4)C3)C2)s1.O=C(O)C(F)(F)F` | -9.964% |
| `Cc1ccc(NC(=O)NC(C)c2nc[nH]n2)s1` (centres unmarked) | 6.255% |
| `CNC(=O)COc1ccc(CNc2c(Cl)cccc2C#N)cc1` | 8.113% |
| `CC(CN1CCOCC1)NC(=O)c1cc(Cl)c2c(c1)OCCO2` (centres unmarked) | 2.483% |
| `CNC(=O)CCc1cc(C2CCCCN2C(C)C)nc(C)n1` (centres unmarked) | 13.49% and -11.04% |
| `Cn1cc(CN2CCCC23CCN(Cc2nccn2C)CC3)cn1.O=C(O)C(F)(F)F.O=C(O)C(F)(F)F` | 18.05% |
| `O=C(O)C(F)(F)F.[H][C@@]12CCN(c3cccc(F)c3)C[C@@]1([H])O[C@H](C(=O)N1CCCC1)C2` | 6.935% |
| `CCOC(=O)Cn1cccc(S(=O)(=O)N2CCCC2)c1=O` | -24.15% |
| `O=C(Cc1ccc(CO)cc1)N1CCN(c2ccccc2Cl)C(=O)C1` | -1.332% |
| `COc1ccc(NC(=O)CSc2nc(C)c(C)c(C)c2C#N)cn1` | -20.9% |
| `Cc1cccc2cc(CN3CCC(O)(CN4CCCC4)CC3)c(=O)[nH]c12` | 7.877% |
| `Fc1ccc(Cn2ncc3c2CN(c2ncccn2)C3)cc1` | 8.068% and 21.15% |
| `CC(Cn1cccn1)NCc1nc(-c2ccco2)no1` (centres unmarked) | -2.348% |

The first 5 entries again:

| compound | percent effect |
|---|---|
| `O=C1N(c2cccc(F)c2)Cc2nc(=O)n(Cc3ccc(Cl)cc3)n21` | -7.148% |
| `CC(C)n1cnnc1CN(C)Cc1ccoc1` | 24.53% |
| `[H][C@@]12C[C@H](C(=O)NCC(C)C)[C@@]([H])(CN(C(=O)Nc3ccc(F)cc3)C1)O2` | -10.3% |
| `COCc1nc(N(C)C)ncc1C(=O)OC` | -6.673% |
| `Cc1cc(F)ccc1NS(=O)(=O)c1cc2c(c(C(=O)O)c1)OCCO2` | 3.728% |

Data taken from ChEMBL document CHEMBL3988442, “University of Dundee, Small-Polar-MMV Screening Library” (2021).